Laboratory results: PubChem BioAssay AID624297 (National Center for Advancing Translational Sciences (NCATS), 2012)
The whole screen tested about 340,000 compounds, of which about 6,200 (1.8%) were called active. Inconclusive means that the source gave no clear call. Such entries were picked first, then a sample of the others. Calls come from the whole dose curve; as a rule, active = well fitted activation curve with a large enough effect; inconclusive = small, poorly fitted or top-dose-only effect; inactive = no such curve, though single readings can be large or run the other way. Where the call is inconclusive, the potency comes from a doubtful curve fit.

test: A quantitative high throughput screen for small molecules that induce DNA re-replication in SW480 colon adenocarcinoma cells.; note: nearly all actives have a fitted effect of over 55% in size; settings: Hoechst DNA content imaging, 48 h; series mostly up to 46.1 µM
Summary of the method: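 Image-based DNA-content assay: after two days of treatment, nuclei were labelled with the DNA dye Hoechst and imaged, and hits were compounds raising the count of nuclei showing high fluorescence intensity.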
Potency is the fitted concentration of half-maximal effect.

| Compound | Potency |
| --- | --- |
| COc1ccc(C(=O)c2ccc(C)cc2)c(OC)c1OC | inconclusive: 20.6 µM [activator, single point] |
| COc1cccc(CC(=O)OCC(=O)NNC(=O)c2ccc(Br)cc2)c1 | inconclusive: 11.6 µM [activator, partial curve, poor fit] |
| Cc1ccc(OCCn2c(SCCO)nc3c(N)ncnc32)cc1 | inconclusive: 32.6 µM [activator, single point] |
| COc1ccc(/C=C2/SC(=O)N(CCNC(=O)C3CCCN3C(=O)c3cccs3)C2=O)cc1 (stereo not drawn) | inactive |
| Cc1ccc(N=Nc2c(O)n(CN3CCOCC3)c3ccccc23)cc1 | inactive |
| N#Cc1ccc(-c2csc(NNC(=O)c3ccc(Br)cc3)n2)cc1 | active: 5.17 µM |
| CN(c1ccc(OCCOc2ccccc2Cl)cc1)S(=O)(=O)c1ccccc1 | inconclusive: 4.11 µM [activator, partial curve, poor fit] |
| O=C(CSc1nc(C2CC2)nc2ccccc12)Nc1ccc2c(c1)OCCO2 | inconclusive: 20.6 µM [activator, single point] |
| Cc1c(C(=O)Nc2ccccc2N2CCN(C)CC2)oc2ccc(F)cc12 | inconclusive: 29.1 µM [activator, single point] |
| N#Cc1c(C(F)(F)F)cc(-c2ccccc2)nc1SCc1nc(N)nc(N2CCOCC2)n1 | inconclusive: 18.4 µM [activator, partial curve, poor fit] |
| CCCCOC(=O)Nc1ccc(S(=O)(=O)Nc2ccc([N+](=O)[O-])cc2)cc1 | inconclusive: 32.6 µM [activator, partial curve, poor fit] |
| COc1cc(/C=C/C(=O)N2CCCN(C(=O)/C=C/c3cc(OC)c(OC)c(OC)c3)CC2)cc(OC)c1OC | inconclusive: 29.1 µM [activator, single point] |
| Cc1nc(SCC(=O)Nc2ccc(F)cc2)c(C#N)c(C)c1CC(=O)c1ccc(Br)cc1 | inconclusive: 20.6 µM [activator, single point] |
| O=C(COc1ccccc1-c1ccccc1)N/N=C/c1cccc2ccccc12 | inconclusive: 0.92 µM [activator, full curve, poor fit] |
| Cc1ccc(NC(=O)c2cc(-c3ccccc3)nn2-c2ccccc2)cc1 | inactive |
| Cc1c(CN2CCC(CO)(CCOc3ccccc3)CC2)[nH]c2c(Cl)cccc12 | inconclusive: 23.1 µM [activator, single point] |
| Cc1c(C)c2ccc(OCC(=O)NCCN3CCOCC3)c(C)c2oc1=O | inactive |
| O=C(CCC(=O)Nc1ccc(Cl)cc1)N/N=C/c1ccc2c(c1)OCO2 | inactive |

2 of these compounds in a different format.
Compound	Potency
Cc1ccc(N=Nc2c(O)n(CN3CCOCC3)c3ccccc23)cc1	inactive
N#Cc1ccc(-c2csc(NNC(=O)c3ccc(Br)cc3)n2)cc1	active: 5.17 µM
